One substance from article doi:10.1101/2021.04.12.439585 can be followed below.

Amino acid sequences for entries named in this document (tags omitted).
UniProt P03427: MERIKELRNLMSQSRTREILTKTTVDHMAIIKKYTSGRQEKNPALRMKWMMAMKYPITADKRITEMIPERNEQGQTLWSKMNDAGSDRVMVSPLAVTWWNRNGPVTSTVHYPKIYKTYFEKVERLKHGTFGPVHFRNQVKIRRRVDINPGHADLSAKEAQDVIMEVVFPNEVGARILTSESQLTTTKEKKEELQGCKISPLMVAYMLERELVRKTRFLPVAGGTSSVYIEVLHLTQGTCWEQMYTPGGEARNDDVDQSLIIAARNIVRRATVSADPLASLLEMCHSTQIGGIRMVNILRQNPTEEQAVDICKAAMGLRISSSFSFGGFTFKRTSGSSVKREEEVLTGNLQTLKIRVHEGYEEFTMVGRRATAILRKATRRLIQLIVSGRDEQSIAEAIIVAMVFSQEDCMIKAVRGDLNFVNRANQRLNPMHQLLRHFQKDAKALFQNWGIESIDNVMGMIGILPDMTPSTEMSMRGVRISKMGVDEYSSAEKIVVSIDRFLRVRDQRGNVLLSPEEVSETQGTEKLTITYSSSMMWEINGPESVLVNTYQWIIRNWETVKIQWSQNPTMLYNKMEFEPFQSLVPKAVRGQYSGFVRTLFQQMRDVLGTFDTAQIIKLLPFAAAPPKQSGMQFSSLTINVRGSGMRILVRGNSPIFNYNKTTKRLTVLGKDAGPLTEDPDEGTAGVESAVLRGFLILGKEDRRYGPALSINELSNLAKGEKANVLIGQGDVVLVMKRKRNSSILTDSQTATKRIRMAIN
UniProt P15682: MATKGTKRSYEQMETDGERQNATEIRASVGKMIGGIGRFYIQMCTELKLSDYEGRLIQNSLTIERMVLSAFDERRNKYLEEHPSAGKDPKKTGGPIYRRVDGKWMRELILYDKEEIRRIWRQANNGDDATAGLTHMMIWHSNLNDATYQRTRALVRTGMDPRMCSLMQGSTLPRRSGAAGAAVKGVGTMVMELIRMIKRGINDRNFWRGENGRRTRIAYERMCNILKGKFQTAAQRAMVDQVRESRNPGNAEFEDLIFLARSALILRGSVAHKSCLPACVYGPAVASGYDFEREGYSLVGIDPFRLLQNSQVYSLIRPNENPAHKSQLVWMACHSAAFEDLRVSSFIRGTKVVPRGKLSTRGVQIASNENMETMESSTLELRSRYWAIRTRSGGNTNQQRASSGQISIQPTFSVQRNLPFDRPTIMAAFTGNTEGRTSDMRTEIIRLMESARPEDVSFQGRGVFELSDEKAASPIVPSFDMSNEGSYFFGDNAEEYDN

For the assay, the target named is PB2-FLAG, wild type (influenza A/WSN/33) (influenza A virus A/WSN/33 (A/H1N1/WSN/1933)) (UniProt P03427). Description: co-IP.

Results are given in words; binding and its absence hold for the method and conditions named. In cells and extracts the contact can be indirect. Some results given as binding are weak or reduced against the parent protein; the word gives no strength.

In the case of “NP-V5 (nucleoprotein, influenza A/WSN/33) (from UniProt P15682 1-498)”, the binding entry was “binds”.
